Assays:
[1] = tested on: citric acid-induced cough responses; test: Duration of anti-tussive effect against citric acid-induced cough, pre-treatment at various times; type: in vivo, guinea pig; conditions: 10 mg/ml aerosol
[2] = tested on: citric acid-induced cough responses; test: Therapeutic aerosol treatment after induction of cough by citric acid aerosol; type: in vivo, guinea pig; conditions: aerosol 10 mg/ml for 5 min, given 2 minutes after citric acid exposure began
[3] = tested on: citric acid-induced cough responses; test: Citric acid aerosol-induced cough in conscious guinea-pigs, 5 min aerosol pre-treatment; type: in vivo, guinea-pig; conditions: for Mean latency of cough: time to onset of first cough after initiation of citric acid aerosol: 5 min pre-treatment; for Mean latency of cough: time to onset of first cough after initiation of citric acid aerosol / Total coughs: number of coughs over 15 min following initiation of 1M citric acid aerosol: mean ± SEM

Compound: CCN(CC)CC(=O)Nc1c(C)cccc1C [Lidocaine, lidocaine, reference compound]
- Effect on latency of cough onset (in words) ([1]; all pre-treatment times): None of the lidocaine pre-treatments affected the latency of cough onset
- Inhibition of cough responses compared with matched vehicle (in words) ([1]; any of the time points (5 min to 4 hours)): did not result in a significant inhibition
- Inhibition of number of cough responses between t=2 and t=10 minutes [2]: 39.1%
- Inhibition of total number of cough responses during the 15 minute observation period compared with matched vehicle ([2]; t=0 to t=15 min): 32.4%
- Percentage reduction of the cough response compared with matched vehicle control groups ([3]; aerosol conc. 0.1 mg/ml): (9.3%)
- Mean latency of cough: time to onset of first cough after initiation of citric acid aerosol ([3]; aerosol conc. 0.1 mg/ml): 88 ± 20 s
- Total coughs: number of coughs over 15 min following initiation of 1M citric acid aerosol ([3]; aerosol conc. 0.1 mg/ml): 27.2 ± 5.3
- Cough frequency (in words) ([3]; aerosol conc. 1.0 mg/ml): reduce cough frequency
- Percentage reduction of the cough response compared with matched vehicle control groups ([3]; aerosol conc. 1.0 mg/ml): (32.6%)
- Mean latency of cough: time to onset of first cough after initiation of citric acid aerosol ([3]; aerosol conc. 1.0 mg/ml): 92 ± 25 s
- Total coughs: number of coughs over 15 min following initiation of 1M citric acid aerosol ([3]; aerosol conc. 1.0 mg/ml): 19.0 ± 4.3
- Cough frequency (in words) ([3]; aerosol conc. 10 mg/ml): reduce cough frequency
- Latency of cough onset (in words) ([3]; aerosol conc. 10 mg/ml): did appear to delay onset of the first cough
- Percentage reduction of the cough response compared with matched vehicle control groups ([3]; aerosol conc. 10 mg/ml): (40.9%)
- Mean latency of cough: time to onset of first cough after initiation of citric acid aerosol ([3]; aerosol conc. 10 mg/ml): 136 ± 21 s
- Total coughs: number of coughs over 15 min following initiation of 1M citric acid aerosol ([3]; aerosol conc. 10 mg/ml): 15.0 ± 3.0
- Effect on the time course of cough responses ([3]; any of the concentrations used (0.1, 1.0, 10 mg/ml)): no significant effect

Source: US6362197B1, “Compositions and method for treatment of cough” (Cardiome Pharma Corp., priority 1998, dated 2002)
